Source: patent publication US8993718B2, “Methods and compositions for detecting and modulating O-glycosylation” (President and Fellows of Harvard College, priority 2007, dated 2015)
Some entries share one result that the patent states for a list of compounds.

System: ppGalNAcTs
Assay: Protease protection assay for ppGalNAcTs (general)
Format: biochemical
Description: There are multiple isoforms of the enzyme polypeptide N-acetylgalactosaminyltranferases (ppGalNAcTs). Activity of ppGalNAcTs are illustrated in FIG. 14. Using assay methods as described above, peptide substrates for ppGalNAcTs were prepared and used to assay to identify modulators of ppGalNAcTs activity. Peptide substrates EPGPTEAPK (SEQ ID NO:25) and EDAVTPGPK (SEQ ID NO:26) were prepared (see FIG. 15) and utilized to assay for modulators of the enzymes. Each peptide substrate include a proteinase K cleavage site. The identified compound SEQ ID NO:25 is a general substrate for ppGalNAcTs and identified compound SEQ ID NO:26 is a selective substrate for the enzyme ppGalNAcT1. Assays were run and alterations in the rate and/or amount of cleavage by proteinase K was determined. […] The difference in cleavage permitted use of the assay to identify compounds that inhibit glycosylation of the substrate by ppGalNAcTs. Additional inhibitory compounds identified using the assay include Compound 24 and Compound 27 (see Table 1).

## O=C(O)CCCN1C(=O)C(O)=C(C(=O)/C=C\c2ccccc2)C1c1ccccc1 (centres unmarked) [Compound 24]
Listed as compound 24
  inhibition of ppGalNAcTs: inhibit

## O=C(O)CCCCCn1c(SCC(=O)c2ccc(O)c(O)c2)nc2ccsc2c1=O [Compound 27]
Listed as compound 27
  inhibition of ppGalNAcTs: inhibit
